The other results are listed elsewhere or left out.
Assays:
Assay in all cases: log2 fold change, soluble protein after heating vs DMSO (PISA); higher = thermal stabilisation; K562 lysate, 10 uM; active = over 0.2 and 3.5 SD of the protein, either way, in both replicates (recomputed)
alvocidib = compound: CN1CC[C@H](c2c(O)cc(O)c3c(=O)cc(-c4ccccc4Cl)oc23)[C@H](O)C1 [alvocidib]
How it was run: (§1)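 A 30 min treatment with 10 μM compound was applied to crude K562 extract at 1 mg/mL protein in PBS pH 7.4 with 1 mM MgCl2. Heating for 3 min spanned 48°C-58°C, after which aliquots were pooled, adjusted to 0.5% NP-40 at 4°C and spun at 21,000xg for 90 min. TMTpro 16plex LC-MS/MS of the supernatant, with channel sums equalised, gave values recorded as log-two fold change in thermal stability against solvent controls, from duplicates.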

Amino acid sequences for entries named in this document (tags omitted). A change or cut given only in a name is not applied to a line headed by its entry.
UniProt P53618: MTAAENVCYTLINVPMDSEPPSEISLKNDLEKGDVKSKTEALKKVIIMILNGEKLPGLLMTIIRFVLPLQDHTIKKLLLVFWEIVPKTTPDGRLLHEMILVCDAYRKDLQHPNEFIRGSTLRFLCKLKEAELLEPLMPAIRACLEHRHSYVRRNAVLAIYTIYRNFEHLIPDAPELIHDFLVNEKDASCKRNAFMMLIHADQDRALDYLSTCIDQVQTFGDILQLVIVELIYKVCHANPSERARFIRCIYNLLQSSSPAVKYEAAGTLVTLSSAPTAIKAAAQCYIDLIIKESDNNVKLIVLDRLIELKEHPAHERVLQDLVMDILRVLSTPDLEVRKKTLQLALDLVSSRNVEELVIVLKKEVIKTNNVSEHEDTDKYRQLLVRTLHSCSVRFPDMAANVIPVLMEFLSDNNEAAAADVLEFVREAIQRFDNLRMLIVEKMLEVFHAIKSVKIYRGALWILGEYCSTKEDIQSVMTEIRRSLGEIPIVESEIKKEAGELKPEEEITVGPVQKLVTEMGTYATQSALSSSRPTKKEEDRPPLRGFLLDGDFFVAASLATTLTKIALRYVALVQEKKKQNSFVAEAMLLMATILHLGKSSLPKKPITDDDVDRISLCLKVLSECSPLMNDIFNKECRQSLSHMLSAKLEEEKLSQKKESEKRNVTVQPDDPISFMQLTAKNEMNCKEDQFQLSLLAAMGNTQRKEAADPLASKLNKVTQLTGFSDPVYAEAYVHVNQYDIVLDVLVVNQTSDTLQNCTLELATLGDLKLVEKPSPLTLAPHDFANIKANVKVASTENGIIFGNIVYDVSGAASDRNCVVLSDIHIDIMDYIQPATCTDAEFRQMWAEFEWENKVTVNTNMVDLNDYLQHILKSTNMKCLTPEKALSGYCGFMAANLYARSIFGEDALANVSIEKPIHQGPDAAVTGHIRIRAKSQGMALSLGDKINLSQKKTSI
UniProt P21964: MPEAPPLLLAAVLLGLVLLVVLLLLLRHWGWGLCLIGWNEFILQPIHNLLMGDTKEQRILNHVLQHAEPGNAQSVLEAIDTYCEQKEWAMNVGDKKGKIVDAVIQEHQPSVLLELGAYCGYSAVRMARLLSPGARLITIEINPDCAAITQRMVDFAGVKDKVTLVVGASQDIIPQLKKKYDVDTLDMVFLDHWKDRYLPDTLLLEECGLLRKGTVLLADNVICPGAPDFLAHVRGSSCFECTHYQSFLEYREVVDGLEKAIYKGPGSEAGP
UniProt Q9P000, whole entry, looked up: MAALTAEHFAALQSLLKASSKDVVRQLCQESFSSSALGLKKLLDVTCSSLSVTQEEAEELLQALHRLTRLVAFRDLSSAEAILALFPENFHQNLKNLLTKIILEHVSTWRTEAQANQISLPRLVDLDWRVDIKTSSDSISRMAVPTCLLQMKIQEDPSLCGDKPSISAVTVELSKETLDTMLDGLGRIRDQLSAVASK
UniProt Q9BR76, whole entry, looked up: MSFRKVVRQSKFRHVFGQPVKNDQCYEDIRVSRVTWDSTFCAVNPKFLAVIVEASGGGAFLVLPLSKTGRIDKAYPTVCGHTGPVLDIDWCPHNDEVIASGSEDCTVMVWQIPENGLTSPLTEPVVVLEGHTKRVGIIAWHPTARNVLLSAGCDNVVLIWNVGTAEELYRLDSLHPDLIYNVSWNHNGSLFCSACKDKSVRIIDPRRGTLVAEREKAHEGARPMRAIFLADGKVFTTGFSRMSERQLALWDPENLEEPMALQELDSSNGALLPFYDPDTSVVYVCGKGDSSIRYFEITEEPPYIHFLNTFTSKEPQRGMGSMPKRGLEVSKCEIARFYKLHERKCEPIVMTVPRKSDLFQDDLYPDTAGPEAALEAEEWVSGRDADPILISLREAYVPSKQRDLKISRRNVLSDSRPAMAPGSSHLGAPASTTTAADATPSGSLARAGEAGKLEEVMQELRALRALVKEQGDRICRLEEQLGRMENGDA
UniProt Q9UFF9, whole entry, looked up: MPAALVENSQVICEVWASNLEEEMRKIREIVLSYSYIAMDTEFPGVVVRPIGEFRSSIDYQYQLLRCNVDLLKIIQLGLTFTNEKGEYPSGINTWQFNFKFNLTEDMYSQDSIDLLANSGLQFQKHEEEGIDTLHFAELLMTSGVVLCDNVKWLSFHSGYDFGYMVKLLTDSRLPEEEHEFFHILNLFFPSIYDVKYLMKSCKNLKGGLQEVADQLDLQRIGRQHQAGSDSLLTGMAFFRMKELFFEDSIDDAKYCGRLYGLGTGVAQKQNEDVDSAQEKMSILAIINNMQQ
UniProt Q9ULV4, whole entry, looked up: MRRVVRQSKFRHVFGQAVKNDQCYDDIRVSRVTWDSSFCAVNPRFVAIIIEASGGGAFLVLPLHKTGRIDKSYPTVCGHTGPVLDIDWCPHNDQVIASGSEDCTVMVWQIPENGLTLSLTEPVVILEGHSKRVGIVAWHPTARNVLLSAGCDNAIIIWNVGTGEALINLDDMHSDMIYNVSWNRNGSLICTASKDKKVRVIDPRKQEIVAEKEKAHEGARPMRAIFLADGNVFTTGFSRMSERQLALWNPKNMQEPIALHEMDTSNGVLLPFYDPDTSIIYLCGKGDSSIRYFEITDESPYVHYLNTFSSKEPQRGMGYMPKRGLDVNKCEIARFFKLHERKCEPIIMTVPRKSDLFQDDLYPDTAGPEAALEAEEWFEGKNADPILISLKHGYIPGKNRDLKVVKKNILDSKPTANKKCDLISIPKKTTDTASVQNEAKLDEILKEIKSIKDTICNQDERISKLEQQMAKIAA
UniProt Q17RY0: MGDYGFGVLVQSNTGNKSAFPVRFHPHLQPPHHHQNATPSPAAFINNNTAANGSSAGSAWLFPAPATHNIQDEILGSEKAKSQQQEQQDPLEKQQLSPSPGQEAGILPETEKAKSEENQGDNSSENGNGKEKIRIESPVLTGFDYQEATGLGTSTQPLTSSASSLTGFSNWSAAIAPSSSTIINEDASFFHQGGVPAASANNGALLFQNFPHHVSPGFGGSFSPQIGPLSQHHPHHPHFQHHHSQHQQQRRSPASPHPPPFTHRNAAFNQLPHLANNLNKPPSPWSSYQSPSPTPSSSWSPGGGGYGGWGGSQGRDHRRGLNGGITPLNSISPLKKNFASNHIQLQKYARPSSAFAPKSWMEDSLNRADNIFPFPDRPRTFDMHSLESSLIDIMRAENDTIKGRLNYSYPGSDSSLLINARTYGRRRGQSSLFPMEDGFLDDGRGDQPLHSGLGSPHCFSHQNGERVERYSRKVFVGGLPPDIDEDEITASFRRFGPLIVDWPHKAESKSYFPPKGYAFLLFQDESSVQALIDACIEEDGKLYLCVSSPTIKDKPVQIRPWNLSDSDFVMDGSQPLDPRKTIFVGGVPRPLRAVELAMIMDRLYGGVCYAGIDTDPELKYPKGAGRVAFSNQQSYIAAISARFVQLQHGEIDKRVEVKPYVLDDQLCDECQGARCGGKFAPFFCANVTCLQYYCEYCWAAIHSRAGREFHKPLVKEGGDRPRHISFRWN
UniProt Q9Y2B0: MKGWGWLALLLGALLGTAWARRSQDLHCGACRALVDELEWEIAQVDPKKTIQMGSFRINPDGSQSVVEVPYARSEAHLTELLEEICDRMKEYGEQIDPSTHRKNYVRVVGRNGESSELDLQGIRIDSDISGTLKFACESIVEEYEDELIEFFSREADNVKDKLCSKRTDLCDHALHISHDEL
UniProt Q86VX2, whole entry, looked up: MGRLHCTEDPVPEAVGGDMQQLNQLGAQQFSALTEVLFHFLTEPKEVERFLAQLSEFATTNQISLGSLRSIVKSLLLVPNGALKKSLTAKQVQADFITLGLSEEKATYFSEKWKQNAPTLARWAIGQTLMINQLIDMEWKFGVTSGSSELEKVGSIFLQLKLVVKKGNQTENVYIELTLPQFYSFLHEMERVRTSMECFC
UniProt P53621: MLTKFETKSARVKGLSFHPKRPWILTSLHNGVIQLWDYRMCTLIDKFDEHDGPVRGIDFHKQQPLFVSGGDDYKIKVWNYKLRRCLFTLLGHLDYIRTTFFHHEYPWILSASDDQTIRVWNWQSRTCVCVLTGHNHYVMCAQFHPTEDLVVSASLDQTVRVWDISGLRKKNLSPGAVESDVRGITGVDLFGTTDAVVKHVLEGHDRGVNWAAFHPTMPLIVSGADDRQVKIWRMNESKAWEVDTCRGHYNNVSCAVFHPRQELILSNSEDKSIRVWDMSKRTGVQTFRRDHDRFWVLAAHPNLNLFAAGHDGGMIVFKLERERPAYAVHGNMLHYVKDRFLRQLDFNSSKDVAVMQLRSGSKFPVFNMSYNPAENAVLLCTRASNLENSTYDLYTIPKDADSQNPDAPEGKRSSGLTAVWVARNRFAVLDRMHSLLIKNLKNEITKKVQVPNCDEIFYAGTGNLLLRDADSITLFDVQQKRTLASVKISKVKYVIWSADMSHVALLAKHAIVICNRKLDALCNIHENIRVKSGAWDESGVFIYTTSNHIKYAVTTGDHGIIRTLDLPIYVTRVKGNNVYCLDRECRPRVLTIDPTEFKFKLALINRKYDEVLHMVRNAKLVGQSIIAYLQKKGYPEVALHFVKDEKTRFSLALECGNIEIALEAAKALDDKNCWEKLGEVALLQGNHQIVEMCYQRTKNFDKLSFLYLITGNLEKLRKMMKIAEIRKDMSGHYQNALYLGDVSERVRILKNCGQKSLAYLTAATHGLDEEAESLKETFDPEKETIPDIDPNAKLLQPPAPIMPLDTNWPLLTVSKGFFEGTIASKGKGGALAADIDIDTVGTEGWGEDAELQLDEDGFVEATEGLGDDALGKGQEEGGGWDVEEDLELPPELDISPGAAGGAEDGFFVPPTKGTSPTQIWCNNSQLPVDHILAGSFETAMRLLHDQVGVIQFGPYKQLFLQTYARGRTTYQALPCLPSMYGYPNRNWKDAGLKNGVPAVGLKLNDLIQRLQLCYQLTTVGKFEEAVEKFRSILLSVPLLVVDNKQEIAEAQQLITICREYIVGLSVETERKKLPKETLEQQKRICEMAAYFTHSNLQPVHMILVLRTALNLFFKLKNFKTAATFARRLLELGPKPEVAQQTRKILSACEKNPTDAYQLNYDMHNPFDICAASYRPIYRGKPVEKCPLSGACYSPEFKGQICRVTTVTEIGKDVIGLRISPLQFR
UniProt P23786: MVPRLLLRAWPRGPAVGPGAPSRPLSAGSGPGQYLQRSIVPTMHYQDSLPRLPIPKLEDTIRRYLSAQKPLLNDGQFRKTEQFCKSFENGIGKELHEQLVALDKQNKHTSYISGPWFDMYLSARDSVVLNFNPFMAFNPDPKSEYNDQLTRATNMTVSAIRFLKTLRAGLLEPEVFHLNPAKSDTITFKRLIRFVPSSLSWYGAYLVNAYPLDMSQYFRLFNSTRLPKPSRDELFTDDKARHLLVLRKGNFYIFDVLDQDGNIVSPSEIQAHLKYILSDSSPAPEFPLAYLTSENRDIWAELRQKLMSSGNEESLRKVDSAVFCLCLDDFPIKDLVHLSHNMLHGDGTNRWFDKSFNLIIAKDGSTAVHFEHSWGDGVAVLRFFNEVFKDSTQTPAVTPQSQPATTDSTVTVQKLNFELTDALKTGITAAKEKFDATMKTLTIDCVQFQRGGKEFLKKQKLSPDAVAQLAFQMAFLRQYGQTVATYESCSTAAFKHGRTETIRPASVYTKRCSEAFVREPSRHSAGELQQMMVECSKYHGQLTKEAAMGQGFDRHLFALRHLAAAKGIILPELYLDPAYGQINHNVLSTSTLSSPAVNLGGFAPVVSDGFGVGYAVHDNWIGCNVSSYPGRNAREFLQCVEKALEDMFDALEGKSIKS
UniProt P35606: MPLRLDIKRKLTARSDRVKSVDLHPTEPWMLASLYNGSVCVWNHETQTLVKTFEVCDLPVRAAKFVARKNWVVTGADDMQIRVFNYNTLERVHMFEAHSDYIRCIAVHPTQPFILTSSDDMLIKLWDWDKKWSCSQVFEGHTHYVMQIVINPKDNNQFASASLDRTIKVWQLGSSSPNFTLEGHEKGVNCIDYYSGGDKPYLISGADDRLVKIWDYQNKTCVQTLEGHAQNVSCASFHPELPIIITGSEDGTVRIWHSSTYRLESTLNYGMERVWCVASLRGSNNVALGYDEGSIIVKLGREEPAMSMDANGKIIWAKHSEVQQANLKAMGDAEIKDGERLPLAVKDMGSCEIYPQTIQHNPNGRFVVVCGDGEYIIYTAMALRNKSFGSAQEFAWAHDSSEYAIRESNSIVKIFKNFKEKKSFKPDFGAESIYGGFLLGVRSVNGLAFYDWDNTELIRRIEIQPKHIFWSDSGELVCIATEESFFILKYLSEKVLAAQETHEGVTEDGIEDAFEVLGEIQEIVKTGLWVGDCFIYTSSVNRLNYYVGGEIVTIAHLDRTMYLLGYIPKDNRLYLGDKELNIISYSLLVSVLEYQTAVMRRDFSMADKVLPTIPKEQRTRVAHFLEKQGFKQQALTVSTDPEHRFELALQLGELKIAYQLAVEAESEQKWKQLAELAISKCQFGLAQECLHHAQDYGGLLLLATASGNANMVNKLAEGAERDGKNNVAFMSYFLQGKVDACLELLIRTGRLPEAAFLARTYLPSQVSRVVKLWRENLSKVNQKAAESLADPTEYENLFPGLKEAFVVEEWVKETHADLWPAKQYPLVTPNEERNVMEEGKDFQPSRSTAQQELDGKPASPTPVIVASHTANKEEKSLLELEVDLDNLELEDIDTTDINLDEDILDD

Tubastatin A = compound: CN1CCc2c(c3ccccc3n2Cc2ccc(C(=O)NO)cc2)C1 [Tubastatin A]
How it was run: as §1

[1] = compound: CNC(=O)C1=CC=CC=C1NC2=NC(=NC=C2Cl)NC3=C(C=C(C=C3)N4CCOCC4)OC
How it was run: as §1

defactinib = compound: CNC(=O)c1ccc(Nc2ncc(C(F)(F)F)c(NCc3nccnc3N(C)S(C)(=O)=O)n2)cc1 [defactinib]
How it was run: as §1

[2] = compound: CNc1nc(-c2ccc3c(N)n[nH]c3c2)cc(N2C[C@@H](C(=O)NC3CCCCC3)CC[C@H]2C)n1
How it was run: as §1

encorafenib = compound: COC(=O)N[C@@H](C)CNc1nccc(-c2cn(C(C)C)nc2-c2cc(Cl)cc(NS(C)(=O)=O)c2F)n1 [encorafenib]
How it was run: as §1

[3] = compound: COC(=O)[C@H](CCSC)NC(=O)C1=C(C=C(C=C1)NC[C@H](CS)N)C2=CC=CC=C2
How it was run: as §1

alisertib = compound: COc1cc(Nc2ncc3c(n2)-c2ccc(Cl)cc2C(c2c(F)cccc2OC)=NC3)ccc1C(=O)O [alisertib]
How it was run: as §1

[4] = compound: COc1cc2nc(-c3cc(F)ccc3O)nc(N[C@@H]3CNC[C@H]3C(C)(C)O)c2cc1OC
How it was run: as §1

gefitinib = compound: COc1cc2ncnc(Nc3ccc(F)c(Cl)c3)c2cc1OCCCN1CCOCC1 [gefitinib]
How it was run: as §1

lapatinib = compound: CS(=O)(=O)CCNCc1ccc(-c2ccc3ncnc(Nc4ccc(OCc5cccc(F)c5)c(Cl)c4)c3c2)o1 [lapatinib]
How it was run: as §1

pictilisib = compound: CS(=O)(=O)N1CCN(Cc2cc3nc(-c4cccc5[nH]ncc45)nc(N4CCOCC4)c3s2)CC1 [pictilisib]
How it was run: as §1

crizotinib = compound: C[C@@H](Oc1cc(-c2cnn(C3CCNCC3)c2)cnc1N)c1c(Cl)ccc(F)c1Cl [crizotinib]
How it was run: as §1

[5] = compound: C[C@H](C1=CC=C(C=C1)C(=O)NC2=C3C=CNC3=NC=C2)N
How it was run: as §1

duvelisib = compound: C[C@H](Nc1ncnc2nc[nH]c12)c1cc2cccc(Cl)c2c(=O)n1-c1ccccc1 [duvelisib]
How it was run: as §1

gandotinib = compound: Cc1cc(Nc2cc(CN3CCOCC3)c3nc(C)c(Cc4ccc(Cl)cc4F)n3n2)n[nH]1 [gandotinib]
How it was run: as §1

tozasertib = compound: Cc1cc(Nc2cc(N3CCN(C)CC3)nc(Sc3ccc(NC(=O)C4CC4)cc3)n2)n[nH]1 [tozasertib]
How it was run: as §1

doramapimod = compound: Cc1ccc(-n2nc(C(C)(C)C)cc2NC(=O)Nc2ccc(OCCN3CCOCC3)c3ccccc23)cc1 [doramapimod]
How it was run: as §1

bafetinib = compound: Cc1ccc(NC(=O)c2ccc(CN3CC[C@H](N(C)C)C3)c(C(F)(F)F)c2)cc1Nc1nccc(-c2cncnc2)n1 [bafetinib]
How it was run: as §1

[6] = compound: Cc1cccc(CC(=O)N2CCc3c2ccc(-c2cn(C)c4ncnc(N)c24)c3F)n1
How it was run: as §1

Measured: log2 fold change

COPB1 (UniProt P53618)
inactive: alvocidib -0.038 | Tubastatin A 0.01 | [1] -0.025 | defactinib 0.003 | [2] -0.003 | encorafenib 0.021 | [3] 0.006 | alisertib -0.002 | [4] 0.017 | gefitinib 0.015 | lapatinib -0.013 | pictilisib -0.016 | crizotinib -0.003 | [5] -0.08 | duvelisib 0.029 | gandotinib 0.043 | tozasertib -0.025 | doramapimod 0.003 | bafetinib -0.03 | [6] 0.056

COMT (UniProt P21964)
inactive: alvocidib 0.012 | Tubastatin A -0.162 | [1] -0.016 | defactinib 0.016 | [2] -0.013 | encorafenib 0.028 | [3] 0.059 | alisertib 0.022 | [4] 0.025 | gefitinib 0.013 | lapatinib -0.006 | pictilisib -0.007 | crizotinib 0.019 | [5] -0.052 | duvelisib -0.015 | gandotinib -0.008 | tozasertib -0.008 | doramapimod 0.038 | bafetinib 0.012 | [6] 0.01

CPSF3 (UniProt Q9UKF6)
inactive: alvocidib 0.029 | Tubastatin A -0.051 | [1] 0.008 | defactinib 0.009 | [2] -0.075 | encorafenib 0.078 | [3] -0.055 | alisertib 0.009 | [4] -0.006 | gefitinib -0.005 | lapatinib 0.001 | pictilisib 0.003 | crizotinib -0.002 | [5] -0.019 | duvelisib 0.008 | gandotinib -0.007 | tozasertib 0.044 | doramapimod 0.03 | bafetinib 0.004 | [6] -0.014

COMMD9 (UniProt Q9P000)
inactive: alvocidib 0.026 | Tubastatin A 0.079 | [1] 0.022 | defactinib 0.14 | [2] 0.038 | encorafenib 0.036 | [3] -0.114 | alisertib 0.079 | [4] -0.051 | gefitinib -0.133 | lapatinib 0.122 | pictilisib 0 | crizotinib 0.013 | [5] 0.092 | duvelisib 0.047 | gandotinib -0.044 | tozasertib -0.003 | doramapimod 0.015 | bafetinib 0.024 | [6] -0.086

CORO1B (UniProt Q9BR76)
inactive: alvocidib 0.012 | Tubastatin A 0.03 | [1] 0.005 | defactinib 0.01 | [2] 0.021 | encorafenib -0.016 | [3] 0.056 | alisertib 0.019 | [4] 0.011 | gefitinib -0.007 | lapatinib -0.012 | pictilisib -0.013 | crizotinib -0.005 | [5] -0.041 | duvelisib 0.012 | gandotinib -0.002 | tozasertib 0 | doramapimod 0.024 | bafetinib -0.021 | [6] 0.02

CNOT8 (UniProt Q9UFF9)
inactive: alvocidib 0 | Tubastatin A -0.001 | [1] -0.013 | defactinib -0.005 | [2] -0.087 | encorafenib 0.035 | [3] -0.045 | alisertib 0.07 | [4] 0.013 | gefitinib -0.02 | lapatinib 0.079 | pictilisib -0.129 | crizotinib -0.015 | [5] -0.12 | duvelisib 0.06 | gandotinib 0.057 | tozasertib 0.017 | doramapimod -0.045 | bafetinib -0.093 | [6] 0.081

CORO1C isoform 3 (UniProt Q9ULV4)
inactive: alvocidib -0.015 | Tubastatin A 0.056 | [1] -0.013 | defactinib 0.011 | [2] 0 | encorafenib -0.005 | [3] -0.02 | alisertib -0.02 | [4] -0.008 | gefitinib 0.019 | lapatinib -0.003 | pictilisib 0.004 | crizotinib -0.007 | [5] 0.02 | duvelisib 0.01 | gandotinib 0.005 | tozasertib 0.01 | doramapimod 0.012 | bafetinib 0.036 | [6] -0.005

CPEB4 (UniProt Q17RY0)
inactive: alvocidib -0.036 | Tubastatin A -0.33 | [1] -0.242 | defactinib 0.142 | [2] 0.096 | encorafenib 0.092 | [3] -0.063 | alisertib -0.057 | [4] -0.045 | gefitinib -0.03 | lapatinib -0.059 | pictilisib -0.056 | [5] -0.117 | duvelisib -0.132 | gandotinib 0.147 | tozasertib 0.037 | bafetinib 0.046 | [6] -0.148

CNOT11 (UniProt Q9UKZ1)
inactive: alvocidib 0.002 | Tubastatin A -0.025 | [1] 0.012 | defactinib 0.001 | [2] 0.071 | encorafenib 0.041 | [3] 0.009 | alisertib -0.012 | [4] 0.014 | gefitinib 0.014 | lapatinib 0.011 | pictilisib 0.042 | crizotinib -0.063 | [5] -0.039 | duvelisib 0.016 | gandotinib -0.045 | tozasertib -0.012 | doramapimod -0.013 | bafetinib -0.019 | [6] 0.086

CNPY2 (UniProt Q9Y2B0)
inactive: alvocidib -0.002 | Tubastatin A 0.026 | [1] 0.01 | defactinib 0.007 | [2] -0.04 | encorafenib -0.014 | [3] -0.057 | alisertib 0.01 | [4] 0.012 | gefitinib 0.056 | lapatinib 0.004 | pictilisib -0.04 | crizotinib 0.056 | [5] -0.003 | duvelisib 0.001 | gandotinib -0.002 | tozasertib -0.059 | doramapimod -0.023 | bafetinib 0.042 | [6] -0.015

COMMD7 (UniProt Q86VX2)
inactive: alvocidib -0.107 | Tubastatin A 0 | [1] 0.046 | defactinib 0.064 | [2] 0.069 | encorafenib 0.016 | [3] -0.229 | alisertib 0.031 | [4] 0.024 | gefitinib -0.023 | lapatinib 0.027 | pictilisib 0.032 | crizotinib -0.018 | [5] -0.096 | duvelisib 0.012 | gandotinib 0.073 | tozasertib -0.023 | doramapimod 0.025 | bafetinib -0.019 | [6] 0.112

COPA isoform 2 (UniProt P53621)
inactive: alvocidib 0.014 | Tubastatin A -0.011 | [1] -0.007 | defactinib -0.011 | [2] 0.016 | encorafenib 0.002 | [3] 0.02 | alisertib 0.008 | [4] -0.002 | gefitinib -0.02 | lapatinib -0.004 | pictilisib -0.005 | crizotinib -0.015 | [5] 0.006 | duvelisib 0.01 | gandotinib -0.021 | tozasertib -0.001 | doramapimod 0.035 | bafetinib -0.014 | [6] -0.01

CNNM3 (UniProt Q8NE01)
inactive: alvocidib 0.004 | Tubastatin A 0.068 | [1] 0.016 | defactinib -0.037 | [2] 0.043 | encorafenib -0.013 | [3] 0.007 | alisertib -0.021 | [4] -0.019 | gefitinib 0.016 | lapatinib 0.003 | pictilisib -0.036 | crizotinib -0.056 | [5] -0.039 | duvelisib -0.013 | gandotinib -0.046 | tozasertib -0.028 | doramapimod 0.043 | bafetinib -0.025 | [6] 0.085

COLGALT2 (UniProt Q8IYK4)
inactive: alvocidib 0.011 | Tubastatin A -0.011 | [1] 0.026 | defactinib 0.012 | [2] -0.064 | encorafenib 0.035 | [3] 0.002 | alisertib -0.003 | [4] 0.008 | gefitinib 0.008 | lapatinib -0.017 | pictilisib 0.01 | crizotinib 0.037 | [5] -0.004 | duvelisib -0.016 | gandotinib -0.022 | tozasertib 0.011 | doramapimod 0.002 | bafetinib -0.017 | [6] 0.017

CPT2 (UniProt P23786)
inactive: alvocidib -0.015 | Tubastatin A 0.025 | [1] 0 | defactinib -0.005 | [2] 0.167 | encorafenib -0.017 | [3] 0.192 | alisertib 0.074 | [4] 0.003 | gefitinib -0.035 | lapatinib -0.054 | pictilisib 0.187 | crizotinib -0.124 | [5] -0.021 | duvelisib 0.06 | gandotinib 0.069 | tozasertib 0.036 | doramapimod -0.012 | bafetinib -0.085 | [6] -0.06

COPB2 (UniProt P35606)
inactive: alvocidib -0.01 | Tubastatin A 0.041 | [1] -0.003 | defactinib -0.028 | [2] -0.006 | encorafenib 0.016 | [3] -0.021 | alisertib 0.006 | [4] 0.002 | gefitinib -0.01 | lapatinib -0.013 | pictilisib -0.011 | crizotinib -0.015 | [5] -0.065 | duvelisib 0.02 | gandotinib 0.024 | tozasertib 0.002 | doramapimod 0.012 | bafetinib -0.039 | [6] 0.028

2 consecutive records out of the list so far:
CNNM3 (UniProt Q8NE01)
inactive: alvocidib 0.004 | Tubastatin A 0.068 | [1] 0.016 | defactinib -0.037 | [2] 0.043 | encorafenib -0.013 | [3] 0.007 | alisertib -0.021 | [4] -0.019 | gefitinib 0.016 | lapatinib 0.003 | pictilisib -0.036 | crizotinib -0.056 | [5] -0.039 | duvelisib -0.013 | gandotinib -0.046 | tozasertib -0.028 | doramapimod 0.043 | bafetinib -0.025 | [6] 0.085

COLGALT2 (UniProt Q8IYK4)
inactive: alvocidib 0.011 | Tubastatin A -0.011 | [1] 0.026 | defactinib 0.012 | [2] -0.064 | encorafenib 0.035 | [3] 0.002 | alisertib -0.003 | [4] 0.008 | gefitinib 0.008 | lapatinib -0.017 | pictilisib 0.01 | crizotinib 0.037 | [5] -0.004 | duvelisib -0.016 | gandotinib -0.022 | tozasertib 0.011 | doramapimod 0.002 | bafetinib -0.017 | [6] 0.017

Source: the supplement of paper PMC10849652
